Experimental data reported in patent publication US20170152311A1.
Where a chain is given by its changes, count along the chain named. No constants are given. Whether binding was seen depends on the method and setting. Some results given as binding are weak or reduced against the parent protein; the word gives no strength.

Chains of the proteins cited; added tags and fusions are not shown. Lines headed by an entry give the natural chain unless they say otherwise; changes in a name come on top.
UniProt P09603: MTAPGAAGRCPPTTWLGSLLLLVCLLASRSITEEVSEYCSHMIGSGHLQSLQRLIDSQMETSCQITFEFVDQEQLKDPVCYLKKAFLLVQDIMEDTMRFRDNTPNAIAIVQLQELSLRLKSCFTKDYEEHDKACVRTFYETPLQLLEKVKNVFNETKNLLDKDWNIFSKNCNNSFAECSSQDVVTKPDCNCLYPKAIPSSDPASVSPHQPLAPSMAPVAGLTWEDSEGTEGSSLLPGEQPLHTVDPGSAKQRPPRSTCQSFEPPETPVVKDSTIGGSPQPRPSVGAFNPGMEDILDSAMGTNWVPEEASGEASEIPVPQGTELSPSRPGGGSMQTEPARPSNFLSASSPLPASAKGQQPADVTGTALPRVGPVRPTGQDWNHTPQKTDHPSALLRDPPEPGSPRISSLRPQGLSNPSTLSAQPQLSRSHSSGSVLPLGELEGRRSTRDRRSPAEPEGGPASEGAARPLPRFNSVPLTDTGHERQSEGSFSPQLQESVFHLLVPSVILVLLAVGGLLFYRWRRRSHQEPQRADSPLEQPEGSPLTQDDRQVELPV

B1: murine monoclonal antibody MC1 (antibody, mouse IgG2a, kappa, V domains shown)
VH: EVKLVESGGGLVQPGGSLKLSCATSGFTFSDYYMYWVRQTPEKRLEWVAYISNGGGSTYYPDTVKGRFTISRDNAKNTLYLQMSRLKSEDTAMYYCARQGSYGYPFAYWGQGTLVTVSA
VL: AIQMTQTTSSLSASLGDRVTISCSASQGISNYLNWYQQKPDGTVKLLIYYTSSLHSGVPSRFSGSGSGTDYSLTISNLEPEDIATYYCQQYSKLPWTFGGGTKLEIKR
B2: heRX1-9.G2 (antibody, V domains shown, not shown: a dimerising Fc or GST)
VH: DVQLQESGPGLVKPSQTLSLTCTVTDYSITSDYAWNWIRQFPGKKLEWMGYISYSGSTSYNPSLKSRITISRDTSKNQFSLQLNSVTAADTATYYCASFDYAHAMDYWGQGTTVTVSS
VL: DIVLTQSPAFLSVTPGEKVTFTCQASQSIGTSIHWYQQKTDQAPKLLIKYASESISGIPSRFSGSGSGTDFTLTISSVEAEDAADYYCQQINSWPTTFGGGTKLEIKR
B3: heRX1-10.G2 (antibody, V domains shown, not shown: a dimerising Fc or GST)
VH: B2 VH with D1Q, T25S, K45G, T93V
VL: B2 VL
B4: heRX1-1.G2 (antibody, not shown: a dimerising Fc or GST)
heavy: B2 VH
light: EIVLTQSPGTLSVSPGERVTFSCRASQSIGTSIHWYQQKTGQSPRLLIKYASERISGIPDRFSGSGSGTDFTLTISRVESEDFADYYCQQINSWPTTFGQGTKLEIKRT

How the values were obtained:
[1] = target: recombinant human M-CSF (human) (UniProt P09603); assay: ELISA screening of hybridoma clones
[2] = target: recombinant human M-CSF (human) (UniProt P09603); assay: size exclusion chromatography or light scattering of equimolar M-CSF and antibody

Binder	binding [1]	binding [2]
B1	binds	–
B2	–	binds
B3	–	binds
B4	–	binds
